Reference: the supplement of paper PMC12067093, “Discovery and optimisation of a covalent ligand for TRIM25 and its application to targeted protein ubiquitination” (Chemical Science, 2025)
Some of the results follow.

Protein sequences, listed by entry. Tags and fused reporters are not part of them. Lines headed by an entry give the natural chain unless they say otherwise; changes in a name come on top.
UniProt P49736, whole entry, looked up: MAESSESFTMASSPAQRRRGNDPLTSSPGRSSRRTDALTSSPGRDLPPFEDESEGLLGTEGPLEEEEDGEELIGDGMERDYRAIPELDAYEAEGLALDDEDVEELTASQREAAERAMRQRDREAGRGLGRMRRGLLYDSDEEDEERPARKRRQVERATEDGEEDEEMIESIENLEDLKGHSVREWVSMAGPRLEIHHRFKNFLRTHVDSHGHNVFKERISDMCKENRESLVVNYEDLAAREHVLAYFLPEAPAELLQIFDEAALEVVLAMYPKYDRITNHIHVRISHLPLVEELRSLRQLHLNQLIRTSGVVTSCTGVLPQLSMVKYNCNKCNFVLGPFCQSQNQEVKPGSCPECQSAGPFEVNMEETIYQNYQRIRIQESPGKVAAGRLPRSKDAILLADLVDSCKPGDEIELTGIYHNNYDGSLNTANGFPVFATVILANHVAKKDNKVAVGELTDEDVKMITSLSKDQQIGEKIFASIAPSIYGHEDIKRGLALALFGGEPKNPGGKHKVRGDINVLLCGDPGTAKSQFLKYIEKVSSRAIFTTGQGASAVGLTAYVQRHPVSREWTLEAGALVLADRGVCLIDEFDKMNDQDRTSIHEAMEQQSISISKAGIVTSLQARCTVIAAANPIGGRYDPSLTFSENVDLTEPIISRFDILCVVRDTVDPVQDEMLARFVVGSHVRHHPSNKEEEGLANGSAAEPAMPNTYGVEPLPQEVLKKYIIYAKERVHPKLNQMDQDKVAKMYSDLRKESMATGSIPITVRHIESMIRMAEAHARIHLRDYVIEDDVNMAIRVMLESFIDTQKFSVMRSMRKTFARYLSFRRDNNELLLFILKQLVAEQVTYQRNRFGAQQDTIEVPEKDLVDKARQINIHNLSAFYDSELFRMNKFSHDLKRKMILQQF
UniProt Q9NU22: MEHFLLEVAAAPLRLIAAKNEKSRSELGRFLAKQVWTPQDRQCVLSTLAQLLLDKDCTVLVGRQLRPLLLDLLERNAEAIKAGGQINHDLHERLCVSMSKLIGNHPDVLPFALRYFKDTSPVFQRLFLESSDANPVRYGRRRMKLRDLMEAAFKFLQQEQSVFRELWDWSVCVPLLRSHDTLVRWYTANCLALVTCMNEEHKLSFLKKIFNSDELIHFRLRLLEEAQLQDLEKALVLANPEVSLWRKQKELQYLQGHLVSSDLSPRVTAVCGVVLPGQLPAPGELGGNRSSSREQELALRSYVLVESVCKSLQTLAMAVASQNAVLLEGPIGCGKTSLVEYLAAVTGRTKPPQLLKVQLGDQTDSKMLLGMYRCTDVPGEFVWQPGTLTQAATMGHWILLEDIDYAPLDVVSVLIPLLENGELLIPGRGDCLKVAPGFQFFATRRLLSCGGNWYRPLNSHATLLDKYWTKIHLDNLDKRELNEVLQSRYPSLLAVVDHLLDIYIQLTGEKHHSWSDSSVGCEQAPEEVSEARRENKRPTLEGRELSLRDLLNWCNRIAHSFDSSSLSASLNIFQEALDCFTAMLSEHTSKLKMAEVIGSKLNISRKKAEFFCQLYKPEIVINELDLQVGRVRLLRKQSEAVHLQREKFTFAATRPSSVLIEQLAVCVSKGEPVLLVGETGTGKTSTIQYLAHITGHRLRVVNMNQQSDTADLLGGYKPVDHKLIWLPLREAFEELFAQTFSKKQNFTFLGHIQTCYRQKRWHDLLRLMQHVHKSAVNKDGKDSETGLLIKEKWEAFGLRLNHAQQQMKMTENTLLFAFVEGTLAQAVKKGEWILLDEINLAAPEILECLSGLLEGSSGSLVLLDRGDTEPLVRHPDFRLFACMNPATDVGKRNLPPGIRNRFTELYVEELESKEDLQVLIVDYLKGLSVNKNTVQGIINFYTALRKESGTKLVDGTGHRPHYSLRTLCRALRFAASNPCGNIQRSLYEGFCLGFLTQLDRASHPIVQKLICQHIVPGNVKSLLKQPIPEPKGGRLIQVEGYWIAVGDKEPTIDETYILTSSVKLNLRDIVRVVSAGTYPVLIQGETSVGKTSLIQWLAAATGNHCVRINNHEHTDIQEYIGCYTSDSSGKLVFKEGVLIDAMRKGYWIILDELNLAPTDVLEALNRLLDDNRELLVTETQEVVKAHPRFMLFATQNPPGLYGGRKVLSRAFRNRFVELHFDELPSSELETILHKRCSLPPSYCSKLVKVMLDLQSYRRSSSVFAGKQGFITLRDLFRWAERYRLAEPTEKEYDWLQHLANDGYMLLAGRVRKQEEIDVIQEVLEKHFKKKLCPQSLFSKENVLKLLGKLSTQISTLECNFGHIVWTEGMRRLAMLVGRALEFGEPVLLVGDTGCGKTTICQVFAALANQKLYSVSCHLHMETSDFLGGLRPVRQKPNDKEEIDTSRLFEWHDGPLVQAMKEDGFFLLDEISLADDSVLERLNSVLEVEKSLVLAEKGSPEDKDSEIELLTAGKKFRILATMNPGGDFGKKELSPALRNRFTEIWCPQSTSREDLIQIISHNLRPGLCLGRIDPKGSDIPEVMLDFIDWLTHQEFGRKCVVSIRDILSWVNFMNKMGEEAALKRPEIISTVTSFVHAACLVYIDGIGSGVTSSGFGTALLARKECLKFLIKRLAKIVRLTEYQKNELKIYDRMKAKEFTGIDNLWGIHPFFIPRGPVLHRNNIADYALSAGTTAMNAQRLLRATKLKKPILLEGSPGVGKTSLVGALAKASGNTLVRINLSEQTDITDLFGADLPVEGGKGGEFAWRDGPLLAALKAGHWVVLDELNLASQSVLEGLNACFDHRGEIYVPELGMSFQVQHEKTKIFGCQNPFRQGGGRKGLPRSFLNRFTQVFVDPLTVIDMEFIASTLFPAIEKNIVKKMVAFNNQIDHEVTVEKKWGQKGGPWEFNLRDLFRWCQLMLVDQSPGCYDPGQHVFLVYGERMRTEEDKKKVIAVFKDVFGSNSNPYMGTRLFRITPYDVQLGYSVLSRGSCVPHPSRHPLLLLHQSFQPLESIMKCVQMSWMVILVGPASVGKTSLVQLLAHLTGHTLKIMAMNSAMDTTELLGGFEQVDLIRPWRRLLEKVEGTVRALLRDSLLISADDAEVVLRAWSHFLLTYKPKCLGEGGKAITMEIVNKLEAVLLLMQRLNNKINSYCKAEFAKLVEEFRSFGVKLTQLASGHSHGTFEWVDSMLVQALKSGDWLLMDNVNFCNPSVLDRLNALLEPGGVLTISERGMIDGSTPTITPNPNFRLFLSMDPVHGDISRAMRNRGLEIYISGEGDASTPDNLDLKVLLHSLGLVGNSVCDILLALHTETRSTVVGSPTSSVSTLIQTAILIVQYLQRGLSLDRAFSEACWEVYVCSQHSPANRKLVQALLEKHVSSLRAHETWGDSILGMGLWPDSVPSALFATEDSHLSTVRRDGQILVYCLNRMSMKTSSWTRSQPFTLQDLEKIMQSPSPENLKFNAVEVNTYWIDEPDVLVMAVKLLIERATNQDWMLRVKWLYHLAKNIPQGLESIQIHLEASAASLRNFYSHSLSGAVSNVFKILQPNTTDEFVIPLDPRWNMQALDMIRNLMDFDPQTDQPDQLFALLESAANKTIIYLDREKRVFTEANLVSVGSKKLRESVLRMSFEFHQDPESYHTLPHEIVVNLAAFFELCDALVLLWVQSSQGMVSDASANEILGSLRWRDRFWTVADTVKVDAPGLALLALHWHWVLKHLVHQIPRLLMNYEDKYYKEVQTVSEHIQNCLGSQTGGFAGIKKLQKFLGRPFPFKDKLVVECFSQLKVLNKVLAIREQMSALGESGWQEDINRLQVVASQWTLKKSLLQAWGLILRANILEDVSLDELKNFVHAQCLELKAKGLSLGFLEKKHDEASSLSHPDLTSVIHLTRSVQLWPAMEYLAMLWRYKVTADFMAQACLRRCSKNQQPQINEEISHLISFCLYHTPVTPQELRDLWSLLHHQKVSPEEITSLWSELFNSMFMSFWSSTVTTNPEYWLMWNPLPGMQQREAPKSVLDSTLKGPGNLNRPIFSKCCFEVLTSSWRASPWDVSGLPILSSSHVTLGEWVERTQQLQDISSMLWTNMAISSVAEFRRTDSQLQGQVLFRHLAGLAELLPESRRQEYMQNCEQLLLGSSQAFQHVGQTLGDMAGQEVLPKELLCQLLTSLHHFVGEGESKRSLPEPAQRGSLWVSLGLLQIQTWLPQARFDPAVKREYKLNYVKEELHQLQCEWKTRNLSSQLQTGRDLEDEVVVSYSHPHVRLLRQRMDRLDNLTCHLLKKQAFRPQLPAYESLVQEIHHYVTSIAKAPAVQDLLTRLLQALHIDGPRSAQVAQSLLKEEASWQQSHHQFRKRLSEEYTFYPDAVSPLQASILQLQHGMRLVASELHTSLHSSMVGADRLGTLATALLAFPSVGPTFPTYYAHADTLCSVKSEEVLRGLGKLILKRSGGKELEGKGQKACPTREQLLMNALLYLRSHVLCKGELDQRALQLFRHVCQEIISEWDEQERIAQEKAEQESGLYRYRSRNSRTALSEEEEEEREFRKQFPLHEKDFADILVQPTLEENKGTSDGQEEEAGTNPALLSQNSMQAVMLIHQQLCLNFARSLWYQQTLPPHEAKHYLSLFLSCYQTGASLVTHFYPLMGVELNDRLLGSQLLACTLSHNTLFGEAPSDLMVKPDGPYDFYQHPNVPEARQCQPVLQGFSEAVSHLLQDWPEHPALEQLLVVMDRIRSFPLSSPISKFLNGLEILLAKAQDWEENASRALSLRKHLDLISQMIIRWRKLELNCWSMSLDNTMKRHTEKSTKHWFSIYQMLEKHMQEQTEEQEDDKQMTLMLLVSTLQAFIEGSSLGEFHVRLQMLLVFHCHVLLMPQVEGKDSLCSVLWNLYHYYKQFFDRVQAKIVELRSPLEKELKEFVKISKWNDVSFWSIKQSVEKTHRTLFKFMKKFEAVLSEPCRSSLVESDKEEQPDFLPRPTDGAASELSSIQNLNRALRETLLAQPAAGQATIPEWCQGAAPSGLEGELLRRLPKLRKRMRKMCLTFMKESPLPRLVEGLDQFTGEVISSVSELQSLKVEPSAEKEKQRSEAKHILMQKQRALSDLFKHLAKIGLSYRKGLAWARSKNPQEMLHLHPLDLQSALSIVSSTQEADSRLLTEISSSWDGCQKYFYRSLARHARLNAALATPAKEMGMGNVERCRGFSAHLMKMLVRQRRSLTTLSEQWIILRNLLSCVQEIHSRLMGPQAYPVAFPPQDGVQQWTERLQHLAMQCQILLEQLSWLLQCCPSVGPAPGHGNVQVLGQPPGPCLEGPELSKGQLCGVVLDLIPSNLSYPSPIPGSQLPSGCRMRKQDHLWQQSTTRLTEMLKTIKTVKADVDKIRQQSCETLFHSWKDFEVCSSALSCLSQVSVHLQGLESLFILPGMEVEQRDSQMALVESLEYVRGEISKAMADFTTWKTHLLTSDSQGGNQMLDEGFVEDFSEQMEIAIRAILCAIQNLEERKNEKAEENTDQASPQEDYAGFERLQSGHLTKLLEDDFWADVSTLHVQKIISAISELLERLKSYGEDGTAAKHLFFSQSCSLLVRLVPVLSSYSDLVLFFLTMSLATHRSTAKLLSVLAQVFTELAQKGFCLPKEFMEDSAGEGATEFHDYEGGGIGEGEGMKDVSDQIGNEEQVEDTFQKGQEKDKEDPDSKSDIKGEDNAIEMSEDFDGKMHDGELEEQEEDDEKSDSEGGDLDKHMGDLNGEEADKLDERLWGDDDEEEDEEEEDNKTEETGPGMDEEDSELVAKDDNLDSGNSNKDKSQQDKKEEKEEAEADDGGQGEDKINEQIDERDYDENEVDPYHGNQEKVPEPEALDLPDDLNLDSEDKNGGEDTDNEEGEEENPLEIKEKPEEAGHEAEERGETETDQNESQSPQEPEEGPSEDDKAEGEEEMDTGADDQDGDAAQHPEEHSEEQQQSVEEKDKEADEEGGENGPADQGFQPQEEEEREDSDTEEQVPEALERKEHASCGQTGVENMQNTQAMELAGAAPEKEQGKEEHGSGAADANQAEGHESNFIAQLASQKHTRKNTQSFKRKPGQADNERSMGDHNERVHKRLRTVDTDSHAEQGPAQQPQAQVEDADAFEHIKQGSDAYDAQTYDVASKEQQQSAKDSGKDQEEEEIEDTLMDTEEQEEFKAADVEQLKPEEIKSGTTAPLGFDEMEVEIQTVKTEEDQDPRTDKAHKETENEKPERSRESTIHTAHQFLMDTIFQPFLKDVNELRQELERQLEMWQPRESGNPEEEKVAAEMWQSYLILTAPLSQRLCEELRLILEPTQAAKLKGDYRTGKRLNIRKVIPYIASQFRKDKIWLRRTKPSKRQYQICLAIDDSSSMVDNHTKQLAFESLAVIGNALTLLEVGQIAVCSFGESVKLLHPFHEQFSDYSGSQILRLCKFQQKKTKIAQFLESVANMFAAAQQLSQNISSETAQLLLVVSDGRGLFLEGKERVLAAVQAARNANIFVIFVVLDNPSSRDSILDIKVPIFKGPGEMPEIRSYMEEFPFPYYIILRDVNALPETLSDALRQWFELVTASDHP

Compound: Cc1cc(ccc1-c1ccccc1)C(=O)N1CCCN(CC1)C(=O)CCl [compound 10]
Assay: probe-labelled cysteine peptide fold change vs DMSO (competition) (log2 fold change); higher = less target engagement (more negative = stronger competition)
Settings: THP-1, incubation time: 4 h
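Further: competitive profiling in live THP-1 cells: cysteine peptides tagged with an iodoacetamide desthiobiotin (IA-DTB) probe, intensity after compound treatment relative to DMSO-treated cells.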

Target | probe-labelled cysteine peptide fold change (10 µM) | probe-labelled cysteine peptide fold change (50 µM)
MDH2_P40926_212_TIIPLISQCTPK (UniProt P40926) | -0.0749 | 0.0289
MED14_O60244_1433_QGECTIFAAVR (UniProt O60244) | -0.0337 | -0.216
MGST1_P10620_50_KVFANPEDCVAFGK (UniProt P10620) | -0.143 | 0.0291
MCM5_P33992_355_AIACLLFGGSR (UniProt P33992) | 0.0253 | 0.126
MED17_Q9NVC6_363_QCPEDHLYVLEHNLHLLIR (UniProt Q9NVC6) | -0.194 | -0.88
MCM3_P25205_319_AILCLLLGGVERDLENGSHIR (UniProt P25205) | 0.0239 | -0.0698
MCTS1_Q9ULC4_55_CHEHIEILTVNGELLFFR (UniProt Q9ULC4) | 0.085 | 0.11
MCM2_P49736_661_FDILCVVRDTVDPVQDEMLAR (UniProt P49736) | -0.0604 | -0.392
METAP1_P53582_22+25_LQCPTCIK (UniProt P53582) | -0.0372 | -0.571
MCM5_P33992_197_KCNTDQAGRPK (UniProt P33992) | 0.0381 | -0.659
MCM3AP_O60318_1864_GASAEELLAQCLSSSLLLEK (UniProt O60318) | -0.168 | 0.342
MGST3_O14880_56_VEYPIMYSTDPENGHIFNCIQR (UniProt O14880) | -0.27 | 0.0241
METTL5_Q9NRN9_38_LLLEQYPTRPHIAACMLYTIHNTYDDIENK (UniProt Q9NRN9) | 0.169 | -0.0108
MEMO1_Q9Y316_88_CALSSVDIYR (UniProt Q9Y316) | 0.112 | -0.0554
MDN1_Q9NU22_3308_MDRLDNLTCHLLK (UniProt Q9NU22) | -0.00667 | -0.264
MGA_Q8IWI9_1313_SSCNEGESSSTSYMHQR (UniProt Q8IWI9) | -0.00962 | -0.147
MCCC2_Q9HCC0_431_MVAAVACAQVPK (UniProt Q9HCC0) | -0.115 | -0.0757
MCM3_P25205_360_YVLCTAPR (UniProt P25205) | -0.0772 | -0.00978

Target | probe-labelled cysteine peptide fold change (10 µM) | probe-labelled cysteine peptide fold change (50 µM)
METAP1_P53582_368_SAQFEHTLLVTDTGCEILTRR (UniProt P53582) | 0.0198 | -0.277
METAP1_P53582_202_SCCTSVNEVICHGIPDR (UniProt P53582) | 0.0105 | -0.0373
MEGF8_Q7Z7M0_930_KGDAACSR (UniProt Q7Z7M0) | 0.0525 | 0.266
MCM6_Q14566_393_GDINVCIVGDPSTAK (UniProt Q14566) | 0.134 | 0.131
MED1_Q15648_489_GLSDALICTDDFIAK (UniProt Q15648) | 0.0372 | -0.0427
MCM2_P49736_223_ISDMCK (UniProt P49736) | -0.124 | -0.178
MDN1_Q9NU22_3308_LDNLTCHLLK (UniProt Q9NU22) | 0.0702 | 0.0612
MCM5_P33992_197_CNTDQAGRPK (UniProt P33992) | -0.0288 | -0.14
MDH2_P40926_93_GCDVVVIPAGVPR (UniProt P40926) | 0.161 | 0.0603
MFN2_O95140_132_VLPSGIGHTTNCFLR (UniProt O95140) | -0.13 | -0.261
MELTF_P08582_603_SEDYELLCPNGAR (UniProt P08582) | -0.188 | 0.124
MCM3_P25205_126_TLTSCFLSCVVCVEGIVTK (UniProt P25205) | -0.0625 | -0.708
MED26_O95402_598_LNILPYVCLD (UniProt O95402) | -0.219 | 0.33
MDN1_Q9NU22_882_LFACMNPATDVGKR (UniProt Q9NU22) | -0.152 | -0.12
MDN1_Q9NU22_2816_LVVECFSQLK (UniProt Q9NU22) | 0.0993 | 0.107
MDH2_P40926_285_SQETECTYFSTPLLLGK (UniProt P40926) | -0.187 | 0.251
MDN1_Q9NU22_2784_EVQTVSEHIQNCLGSQTGGFAGIK (UniProt Q9NU22) | 0.231 | 0.12
MGA_Q8IWI9_1238_EEDKDPVYLYFESMMTCAR (UniProt Q8IWI9) | 0.0142 | 0.189
